According to the supplement of paper PMC6078165:
Values are relative to the signal before dosing, not to a vehicle control; the signal also falls without drug.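 Fibroblast labels denote human fibroblasts, mainly primary ones from uterus (C12385, HUF), lung (H6013), bone (Hs27A), adrenal (HADF) and skin (WS1), plus mammary HMF and breast cancer-associated Hs343T. Cancer cells are basal-like or mesenchymal-like triple-negative breast cancer lines. A hit is a response shift exceeding 3x replicate standard deviation. The tissue of the other fibroblasts is not given here.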

System: HCC1143
Test: relative JC-1 red fluorescence (viability) vs pre-drug, coculture with fibroblast (fraction); higher = more viable cancer cells
Conditions: 10 µM
Method: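 JC-1 labelled TNBC cells cocultured 1:1 (1,500 cells each) with CellTrace Violet stained primary or stromal fibroblasts in 384-well plates in FluoroBrite medium, treated with one of 42 anticancer drugs at 0.1, 1, 10 or 100 uM. JC-1 red fluorescence (mitochondrial integrity in cancer cells only) was read by plate reader every 8 h for 72 h. Values are normalised to each well's pre-drug value. The stock of one drug was tenfold lower, so its dose labels may be too high.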

CO[C@H]1C[C@@H]2CC[C@@H](C)[C@@](O)(O2)C(=O)C(=O)N2CCCC[C@H]2C(=O)O[C@H]([C@H](C)C[C@@H]2CC[C@@H](OCCO)[C@H](OC)C2)CC(=O)[C@H](C)/C=C(\C)[C@@H](O)[C@@H](OC)C(=O)[C@H](C)C[C@H](C)/C=C/C=C/C=C/1C [Everolimus]
relative JC-1 red fluorescence
Conditions	8 h	16 h	24 h	32 h	40 h	48 h	56 h	64 h	72 h
coculture fibroblast: C12385	0.8835	0.8432	0.786	0.721	0.67	0.6411	0.613	0.581	0.5617
coculture fibroblast: H6013	0.772	0.733	0.722	0.734	0.661	0.657	0.625	0.618	0.625
coculture fibroblast: H6019	0.8566	0.8035	0.772	0.72	0.677	0.664	0.634	0.601	0.582
coculture fibroblast: H6076	0.815	0.952	0.94	0.8549	0.847	0.8162	0.766	0.732	0.7484
coculture fibroblast: H6231	0.8058	0.923	0.91	0.786	0.832	0.815	0.774	0.734	0.731
coculture fibroblast: HADF	0.734	0.706	0.69	0.722	0.614	0.591	0.568	0.549	0.598
coculture fibroblast: HCFa	0.801	0.773	0.765	0.769	0.666	0.648	0.611	0.578	0.572
coculture fibroblast: HCPF	0.829	0.917	0.903	0.8	0.84	0.809	0.776	0.735	0.733
coculture fibroblast: HHSteC	0.851	0.8328	0.8241	0.8026	0.712	0.687	0.639	0.605	0.582
coculture fibroblast: HMF	0.789	0.932	0.896	0.769	0.7865	0.742	0.697	0.663	0.63
coculture fibroblast: HPFa	0.949	0.896	0.846	0.753	0.694	0.675	0.636	0.598	0.576
coculture fibroblast: HUF	0.897	0.85	0.811	0.751	0.712	0.684	0.648	0.622	0.6
coculture fibroblast: Hs5	0.872	0.82	0.959	0.915	0.846	0.802	0.762	0.722	0.717
coculture fibroblast: Hs27A	0.714	0.661	0.626	0.673	0.536	0.514	0.488	0.469	0.51
coculture fibroblast: Hs343T	0.862	0.87	0.872	0.882	0.893	0.852	0.807	0.779	0.749
coculture fibroblast: WS1	0.8783	0.8164	0.759	0.68	0.63	0.587	0.551	0.522	0.494
